The list shows only some results of the screen, not a fair sample: it gathers tests that were run many times, whatever their T/C, doses with no T/C, and many T/C values between a quarter and a half above the control. Other doses and runs of a compound stand elsewhere. T/C: endpoint of the treated group in % of that of the vehicle group. Some entries give survivors of the animals treated and no T/C: the source files T/C as zero there, which appears to mark a toxic dose or a test without result, not a measured value. Some doses without a T/C left all or most animals alive at the check, yet need not have been tolerated: the source hardly ever lists a survival T/C far under the control, and the zero likely stands for such cases as well. Survivors were counted at the toxicity check, usually on the fifth day, unless a day is given; later deaths do not show. Schedules are NCI's codes, taken here to give the interval after Q, in days (D) or hours (H), and the number of doses after X. Some schedule codes hold Z or #, which are not explained here. Where survival is the endpoint, this PubChem deposit counts one and a half times the control or more as active, and values a quarter to a half above the control carry no call in these data; other NCI protocols may use other cut-offs. Some T/C values are followed by the survivors on the day toxicity was checked, most often the fifth; where none is given, no animal had died by that day.
Tested on: L1210 leukemia ip in BDF1 mice, survival T/C
Assay: NCI In Vivo Anticancer Drug Screen. Data for tumor model L1210 Leukemia (intraperitoneal) in B6D2F1 (BDF1) mice
Details: T/C endpoint: mean survival time, higher T/C = longer survival
[1] = dose: 300.0 mg/kg/injection, schedule: Q01DX001 (ip), vehicle: saline
[2] = dose: 100.0 mg/kg/injection, schedule: Q04DX002 (ip), vehicle: Klucel (hydroxypropylcellulose) (HPC)
[3] = dose: 5.0 mg/kg/injection, schedule: Q01DX001 (ip), vehicle: saline
[4] = dose: 10.0 mg/kg/injection, schedule: Q01DX001 (ip), vehicle: saline
[5] = dose: 20.0 mg/kg/injection, schedule: Q01DX001 (ip), vehicle: saline
[6] = dose: 40.0 mg/kg/injection, schedule: Q01DX001 (ip), vehicle: saline
[7] = dose: 80.0 mg/kg/injection, schedule: Q01DX001 (ip), vehicle: saline
[8] = dose: 50.0 mg/kg/injection, schedule: Q01DX009 (ip), vehicle: saline
[9] = dose: 100.0 mg/kg/injection, schedule: Q01DX001 (ip), vehicle: saline
[10] = dose: 200.0 mg/kg/injection, schedule: Q01DX001 (ip), vehicle: saline
[11] = dose: 400.0 mg/kg/injection, schedule: Q01DX001 (ip), vehicle: saline
[12] = dose: 200.0 mg/kg/injection, schedule: Q04DX003 (ip), vehicle: saline
[13] = dose: 400.0 mg/kg/injection, schedule: Q04DX003 (ip), vehicle: saline
[14] = dose: 200.0 mg/kg/injection, schedule: Q01DX009 (ip), vehicle: saline with Tween-80
[15] = dose: 400.0 mg/kg/injection, schedule: Q01DX009 (ip), vehicle: Klucel (hydroxypropylcellulose) (HPC)
[16] = dose: 100.0 mg/kg/injection, schedule: Q01DX009 (ip), vehicle: saline with Tween-80

For NC(N)=NNc1ccccc1, the survivor count (dose: 200.0 mg/kg/injection, schedule: Q01DX009 (ip), vehicle: saline) was 1 of 3.
CC(C)(N)CC(=O)Oc1ccccc1 was tested, and the survivor count (dose: 75.0 mg/kg/injection, schedule: Q04DX003 (ip), vehicle: saline) was 6 of 6 and the survivor count [1] was 0 of 6.
CC1=C(Br)C(=O)C(c2c(C)cc(C)c(Br)c2C)=C(Br)C1=O was tested, and the survivor count (dose: 400.0 mg/kg/injection, schedule: Q01DX001 (ip), vehicle: Klucel (hydroxypropylcellulose) (HPC)) was 6 of 6.
With CN(N=Nc1ccc(C(=N)N)cc1)C1CCCCC1 the survivor count (dose: 75.0 mg/kg/injection, schedule: Q01DX001 (ip), vehicle: saline) was 0 of 6, the survivor count (dose: 150.0 mg/kg/injection, schedule: Q01DX001 (ip), vehicle: saline) was 0 of 6 and the survivor count [1] was 0 of 6.
With CC/C(=N/N=C(N)N)c1ccc(F)cc1 the survivor count (dose: 120.0 mg/kg/injection, schedule: Q01DX Z (oral), vehicle: carboxymethylcellulose (CMC)) was 0 of 6.
With ClCCN(CC1C(c2ccccc2)C1c1ccccc1)C1CCCCC1 (centres undefined) the survivor count (dose: 25.0 mg/kg/injection, schedule: Q04DX002 (ip), vehicle: Klucel (hydroxypropylcellulose) (HPC)) was 3 of 3, the survivor count (dose: 50.0 mg/kg/injection, schedule: Q04DX002 (ip), vehicle: Klucel (hydroxypropylcellulose) (HPC)) was 2 of 3 and the survivor count [2] was 0 of 3.
In the case of CO[C@H]1[C@H](O)[C@H](O[C@H]2CC[C@@]3(C)[C@H](CC[C@@H]4[C@@H]3CC[C@]3(C)[C@@H](C5=CC(=O)OC5)CC[C@]43O)C2)O[C@@H](C)[C@@H]1O, the survivor count [3] is reported as 3 of 6, the survivor count [4] is reported as 1 of 6 and the survivor count [5] is reported as 0 of 6. The survivor count [6] was 0 of 6 and the survivor count [7] was 0 of 6.
In the case of COC1=C(N2CC2)C(=O)C(OC)=C(N2CC2)C1=O, the T/C (dose: 2.0 mg/kg/injection, schedule: Q01DX009 (ip), vehicle: carboxymethylcellulose (CMC)) is reported as 137 % of control, the T/C (dose: 3.0 mg/kg/injection, schedule: Q01DX009 (ip), vehicle: carboxymethylcellulose (CMC)) is reported as 129 % of control and the survivor count (dose: 6.0 mg/kg/injection, schedule: Q01DX009 (ip), vehicle: carboxymethylcellulose (CMC)) is reported as 6 of 6. For the same compound, the survivor count (dose: 12.0 mg/kg/injection, schedule: Q01DX009 (ip), vehicle: carboxymethylcellulose (CMC)) was 6 of 6.
COc1cc(C)c2oc(C)nc2c1 was tested, and the survivor count (dose: 200.0 mg/kg/injection, schedule: Q01DX001 (ip), vehicle: Klucel (hydroxypropylcellulose) (HPC)) was 6 of 6.
For COc1ccc(CC2Cc3cc(OC)c(OC)cc3C=N2)cc1OC (centres undefined), the survivor count (dose: 400.0 mg/kg/injection, schedule: Q01DX009 (ip), vehicle: saline) was 2 of 6.
For CC(C)NS(=O)(=O)c1ccc(Cl)cc1, the survivor count (dose: 400.0 mg/kg/injection, schedule: Q04DX003 (ip), vehicle: Klucel (hydroxypropylcellulose) (HPC)) was 3 of 6.
CNS(=O)(=O)c1ccc(NC(=O)CCl)cc1 was tested, and the survivor count (dose: 400.0 mg/kg/injection, schedule: Q04DX003 (ip), vehicle: other) was 3 of 6.
CC(C)(C)C(=O)C(C)(C)C was tested, and the survivor count (dose: 400.0 mg/kg/injection, schedule: Q01DX001 (ip), vehicle: carboxymethylcellulose (CMC)) was 2 of 4.
With CCCCP(=O)(CCCC)CCP(=O)(CCCC)CCCC the survivor count (dose: 400.0 mg/kg/injection, schedule: Q04DX003 (ip), vehicle: saline with Tween-80) was 6 of 6.
For COC(=O)C1=C(NC(=O)Nc2ccc(Cl)cc2)OC(C)(C)C1c1ccc(Cl)cc1 (centres undefined), the survivor count [8] was 6 of 6, the survivor count [9] was 5 of 6 and the survivor count [10] was 6 of 6. For the same compound, the survivor count [11] was 6 of 6.
In the case of c1ccc(-c2ncc3cnccn23)cc1, the survivor count [12] is reported as 6 of 6 and the survivor count [13] is reported as 0 of 6.
For O=[N+]([O-])c1ccc(/C(=C/c2ccccc2)[n+]2ccccc2)cc1, the survivor count (dose: 75.0 mg/kg/injection, schedule: Q01DX001 (ip), vehicle: acetone) was 2 of 6, the survivor count (dose: 150.0 mg/kg/injection, schedule: Q01DX001 (ip), vehicle: acetone) was 0 of 6 and the survivor count (dose: 300.0 mg/kg/injection, schedule: Q01DX001 (ip), vehicle: acetone) was 0 of 6.
For O=C(N/N=C/c1c(Cl)cccc1Cl)C1CCCO1 (centres undefined), the survivor count (dose: 50.0 mg/kg/injection, schedule: Q01DX009 (ip), vehicle: Klucel (hydroxypropylcellulose) (HPC)) was 3 of 6, the survivor count (dose: 100.0 mg/kg/injection, schedule: Q01DX009 (ip), vehicle: Klucel (hydroxypropylcellulose) (HPC)) was 0 of 6 and the survivor count [2] was 1 of 3. For the same compound, the survivor count (dose: 200.0 mg/kg/injection, schedule: Q04DX002 (ip), vehicle: Klucel (hydroxypropylcellulose) (HPC)) was 0 of 3 and the survivor count (dose: 400.0 mg/kg/injection, schedule: Q04DX002 (ip), vehicle: Klucel (hydroxypropylcellulose) (HPC)) was 0 of 3.
CCOC(C)C(/C=N/NC(N)=S)=NNC(N)=S (centres undefined) was tested, and the survivor count (dose: 120.0 mg/kg/injection, schedule: Q01DX010 (ip), vehicle: saline) was 6 of 6, the survivor count (dose: 240.0 mg/kg/injection, schedule: Q01DX Z (ip), vehicle: carboxymethylcellulose (CMC)) was 2 of 6 and the survivor count (dose: 480.0 mg/kg/injection, schedule: Q01DX Z (ip), vehicle: carboxymethylcellulose (CMC)) was 0 of 6. The survivor count (dose: 480.0 mg/kg/injection, schedule: Q01DX Z (oral), vehicle: carboxymethylcellulose (CMC)) was 0 of 6.
O=[N+]([O-])c1ccc(Cn2cnc3c(Cl)ncnc32)cc1 was tested, and the survivor count (dose: 200.0 mg/kg/injection, schedule: Q01DX001 (ip), vehicle: other) was 1 of 6 and the survivor count (dose: 400.0 mg/kg/injection, schedule: Q01DX001 (ip), vehicle: other) was 0 of 6.
In the case of CC1(C)c2ccccc2C(=O)C1(Br)Cc1ccccc1 (centres undefined), the survivor count [14] is reported as 0 of 6 and the survivor count (dose: 400.0 mg/kg/injection, schedule: Q01DX009 (ip), vehicle: saline with Tween-80) is reported as 0 of 6.
In the case of O=C(CNC(=O)Nc1nccs1)N/N=C/c1ccc(Cl)cc1, the survivor count [14] is reported as 3 of 3.
For O=c1c2ccccc2sc2c(CO)ccc(NCCN3CCCCC3)c12, the T/C [15] was 131 % of control.
For CCCCCCCCCCCC(c1ccccc1)[N+](C)(C)C (centres undefined), the survivor count [3] was 0 of 4, the survivor count (dose: 8.0 mg/kg/injection, schedule: Q01DX009 (ip), vehicle: saline) was 2 of 6 and the survivor count [4] was 1 of 4. The survivor count (dose: 16.0 mg/kg/injection, schedule: Q01DX009 (ip), vehicle: saline) was 3 of 6, the survivor count [5] was 1 of 4 and the survivor count [6] was 0 of 4. The survivor count [7] was 0 of 4.
With Cc1ccc(NC(=O)Nc2cccc(C(F)(F)F)c2)cc1NC(=O)Nc1cccc(C(F)(F)F)c1 the survivor count [16] was 6 of 6 and the survivor count (dose: 200.0 mg/kg/injection, schedule: Q04DX003 (ip), vehicle: saline with Tween-80) was 6 of 6.
With COc1cc2c(cc1OC)-c1cc3cc(OC)c(OC)cc3c(C)[n+]1CC2 (tested in a mixture with another compound) the T/C [16] was 129 % of control [4 of 6 alive].
With Cc1ccc(N(N)c2ccc(C)cc2)cc1 the survivor count [15] was 3 of 6.
In the case of CCCCNc1cc2c3c(c1)CCCN3CCC2, the survivor count [8] is reported as 0 of 6, the survivor count (dose: 100.0 mg/kg/injection, schedule: Q04DX003 (ip), vehicle: saline) is reported as 1 of 6 and the survivor count [12] is reported as 0 of 6. The survivor count [13] was 0 of 6.
For c1ccc2c(c1)ccc1ccc3cccc[n+]3c12, the survivor count (dose: 50.0 mg/kg/injection, schedule: Q01DX001 (ip), vehicle: saline) was 0 of 6, the survivor count [9] was 0 of 6 and the survivor count [10] was 0 of 6. For the same compound, the survivor count [11] was 0 of 6.
